Two molecules from patent publication US20250382369A1 (UCL BUSINESS, published 2025) can be followed below.

The target of test [1] is recombinant cynomolgus monkey B7-H3 (cynomolgus monkey (Macaca fascicularis)). Kind of test: ELISA, whole antibody on plate bound recombinant protein (FIG. 5B). Background: An ELISA detects its analyte on a solid surface through an enzyme-linked reagent.
Test [2] has the same target. Kind of test: binding ELISA with immobilised recombinant protein (FIG. 28C).

These are yes or no findings as the source states them, for the method shown. Binding calls can cover weak binding; strength is not graded here.

B1: TC6 chimeric human IgG1 full antibody (antibody, V domains shown)
VH: QVKLQESGAELVKPGASVKLSCKASGYTFTSYWIHWVKQRPGQGLEWIGMIHPKSGSINYNEKFRSKATLTVDKSSSTAYMQLSRLTSEDSAVYFCASGGYGSSLDYWGQGTTVTVSS
VL: QIVLTQSPAIMSASPGEKVTMTCSASSSVSYMYWYQQKPRSSPISWIYLTSNLASGVPARFSGSGSGTSYSLTISSMEAEDAATYYCQQWSSDPLTFGAGTKLELK
With B1, in test [1], the binding entry is recorded as “binds”.

B2: TE9 chimeric human IgG1 full antibody (antibody, V domains shown)
VH: QVQLQQSGAALVKPGTSVKLSCKASGYTFTSYWMHWVKQRPGQGLEWIGMIHPKSGSVDYNEKFTNKATLTGDKSSGTAYMQLSSLTSEDSAVYYCARGGYGSPFDYWGQGTTVTVSS
VL: ENVLTQSPAIMSASPGEKVTMTCSASSSVSYMYWYQQKPGSSPRLLIYRTSNLASGVPARFSGSGSGTSYSLTISSMEAEDAATYYCQQWSSNPPTFGGGTKLEIK
notes: Chimeric antibody, mouse variable domains cloned into full human IgG1; also called TE9 antibody; TE9 whole antibody
Turning to B2, the binding entry in test [2] and in test [1] was “binds” throughout.
